The experiment in a line: qHTS Assay for Lipid Storage Modulators in Drosophila S3 Cells.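 On cell number change: cells counted by Cell Tracker Red CMTPX staining in the red channel.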 Conditions: BODIPY lipid droplet fluorescence, 18-24 h; for cell number change: measured here: cell count max response, cells fed with added oleic acid. The essentials:
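Drosophila S3 cells loaded with oleic acid (400 uM, as added) and compounds at several concentrations; lipid droplets imaged by 488-nm laser-scanning cytometry, 500–530 nm intensity and object ratio to cell channel. Percent activity normalized to 20 uM Triacsin C.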

The mark [1] stands for this setting: measured here: cell number channel AC50, cells fed with added oleic acid.
Setting [2] is: measured here: lipid fluorescence (Fed channel) AC50, cells fed with added oleic acid.

Data on 55 molecules can be found in PubChem BioAssay AID2685 (National Center for Advancing Translational Sciences (NCATS), 2010).

What is called AC50 is the midpoint of the concentration-response curve, whichever way the signal moves. A low value points to activity at low concentration.

The list shows a part of the results. The main result of the screen is listed elsewhere. These columns were measured beside it and carry no call. Most of these compounds were active or inconclusive in the main read-out, so they are no random draw. Words in brackets tell the shape of the fitted curve; partial curves, single points and poor fits give uncertain potencies.

As to `N#Cc1ccccc1NC(=O)CN1CC=C(c2ccccc2)CC1`, the cell number change came to 40.2%. Also, under setting [1], the AC50 is 32.6 µM [rising, single point].

As for `Cc1cc(OCCN2CC2)c2ccccc2n1`, the AC50 under setting [1] was 3.26 µM [rising, partial curve].

On to `CC(=O)OC1N=C(c2ccc(Cl)cc2)c2cc(Br)ccc2NC1=O` (stereo not drawn), for which the cell number change was -34.6%. For the same molecule, the AC50 under setting [1] was 29.1 µM [falling, single point]. Further, under setting [2], the AC50 was 29.1 µM [falling, single point].

For the molecule `Cn1cc2c([N+](=O)[O-])cc([N+](=O)[O-])cc2n1`, the cell number change amounted to 21.4%.

For `CC(=O)Nc1ccccc1C(=O)OCc1ccccc1F`, the cell number change is -4.33%. Besides, under setting [1], the AC50 was 4.11 µM [falling, single point]. Further, the AC50 under setting [2] was 4.11 µM [falling, partial curve, poor fit].

`O=C(Cn1c2c(c(-c3ccccc3Cl)cc1=O)CCC2)N1CCC2(CC1)OCCO2`: under setting [2], the AC50 was 3.66 µM [falling, single point].

For the molecule `O=C(CN1C(=O)CCSc2ccccc21)N1CCC2(CC1)OCCO2`, the cell number change was -42.5%. For the same molecule, the AC50 under setting [1] was 4.11 µM [falling, full curve].

Regarding `OC(CNCCc1c[nH]c2ccccc12)c1ccccc1` (stereo not drawn), the cell number change stood at 25.8%.

For `COc1ccc(OCC(=O)N2CCN(Cc3ccc4c(c3)OCO4)CC2)cc1`, the cell number change turned out to be 10.3%. The AC50 under setting [2] was 0.00461 µM [rising, full curve, poor fit].

In the case of `CC1(C)C2([N+](=O)[O-])CN3CC1([N+](=O)[O-])CN(C2)C3c1ccccn1` (stereo not drawn), the cell number change is 3.04%.

In the case of `CCOP(=O)(c1ccc(N(C)C)cc1)C(O)c1ccccc1` (stereo not drawn), under setting [1], the AC50 is 0.0326 µM [falling, partial curve].

As for `O=C(CCc1ccc(O)cc1)N1C[C@H]2C[C@@H](C1)c1cccc(=O)n1C2`, the cell number change was found to be 4.21%. Under setting [2], the AC50 is 6.51 µM [rising, single point].

Consider `Cc1cccn2c(=O)c3c(nc12)N1CCCCCC1C1(C3)C(=O)N(C)C(=O)N(C)C1=O` (stereo not drawn), for which the cell number change was found to be 34%. Besides, the AC50 under setting [1] was 18.4 µM [rising, partial curve, poor fit].

For `CCCCn1c(O)c(C(CC)=NCCCN(C)C)c(=O)[nH]c1=O`, the cell number change was -6.54%.

As to `O=c1c2ccccc2nc(/C=C/c2ccc(O)cc2)n1-c1ccccc1O`, the cell number change is 24.4%. In addition, under setting [2], the AC50 is 0.82 µM [rising, full curve, poor fit].

For the molecule `CC12CC[C@H]3[C@@H](CCC4(O)C[C@H](O)CCC34/C=N/NC(=O)c3ccccc3F)C1(O)CCC2C1=CC(=O)OC1` (stereo partly drawn), the cell number change is -25.1%. In addition, the AC50 under setting [1] was 0.82 µM [falling, full curve, poor fit]. Moreover, the AC50 under setting [2] is 13 µM [falling, partial curve].

Take `CSc1ccc(C(=O)C2CCCN(Cc3cc4ccccc4[nH]3)C2)cc1` (stereo not drawn): the cell number change is -57.2%. Besides, under setting [1], the AC50 is 20.6 µM [falling, single point]. For the same molecule, under setting [2], the AC50 is 23.1 µM [falling, single point].

On to `CN1C(=O)N(C)C(=O)C(CCc2ccncc2)(CCc2ccncc2)C1=O`, for which the cell number change is 13.7%. Further, the AC50 under setting [2] is 6.51 µM [rising, single point].

Regarding `CC(=O)CCC(C)=O`, the cell number change was -25.2%. The AC50 under setting [1] was 0.082 µM [falling, full curve, poor fit]. The AC50 under setting [2] is 0.103 µM [rising, full curve, poor fit].

`Cc1nc2cc(C(F)(F)F)ccc2n1C1CCN(Cc2nnnn2CCc2ccccc2)CC1`: the cell number change was -47.7%. The AC50 under setting [1] was 29.1 µM [falling, single point]. Besides, the AC50 under setting [2] was 29.1 µM [falling, single point].

`O=C1/C(=C/c2cc3c(cc2Cl)OCO3)N2CCC1CC2`: the cell number change is -11.5%. Further, under setting [2], the AC50 was 0.092 µM [rising, full curve, poor fit].

Regarding `Cc1cc(C)n2nc(SC(C)C(=O)N3CCC4(CC3)OCCO4)nc2n1` (stereo not drawn), the cell number change was -4.33%. Besides, the AC50 under setting [2] is 0.082 µM [rising, full curve, poor fit].

For `O=c1[nH]c(O)c(N=Nc2cc(C(F)(F)F)ccc2Cl)c(=O)[nH]1`, the cell number change turned out to be 21.7%. Besides, the AC50 under setting [2] was 29.1 µM [rising, single point].

On to `CP(=O)(O)CCCN`, for which the cell number change was -52.1%. In addition, the AC50 under setting [1] was 29.1 µM [falling, single point]. In addition, under setting [2], the AC50 is 5.17 µM [falling, partial curve].

For the molecule `O=C1NC(=O)N(Cc2ccco2)C(=O)/C1=C\c1cccn1CCOc1ccc(Cl)cc1`, the cell number change was -12.5%. The AC50 under setting [2] was 11.6 µM [falling, partial curve].

With `CCOC(=O)c1ccc(-[n+]2c(-c3ccccc3)cc(-c3ccccc3)cc2-c2ccccc2)cc1`, the cell number change is -9.57%. For the same molecule, the AC50 under setting [2] was 6.51 µM [falling, single point].

For `CC[N+](CC)(CC)CCCCCCCCCC[N+](CC)(CC)CC`, the cell number change came out at 9.25%. Under setting [2], the AC50 was 6.51 µM [falling, single point].

In the case of `COc1ccccc1-n1c(O)c(/C=N/N2CCCCC2)c(=O)n(-c2ccccc2OC)c1=S`, the cell number change amounted to 11.3%.

Regarding `CCOP(=O)(Cc1ccc(C#N)o1)OCC`, the cell number change was -24.9%. The AC50 under setting [2] is 4.61 µM [rising, partial curve].

For the molecule `COc1ccc(C2C(C(=O)N3CCC4(CC3)OCCO4)c3cc(OC)c(OC)cc3C(=O)N2C)cc1` (stereo not drawn), the half-maximal activity concentration (AC50) under setting [2] was 0.82 µM [falling, full curve, poor fit].

Turning to `O=C1C=Cc2ccccc2C1=O`, the cell number change was -1.57%. Moreover, the AC50 under setting [2] is 25.9 µM [falling, single point].

For the molecule `CC(N)C(=O)OC(C)(C)Cc1ccc(Cl)cc1` (stereo not drawn), the cell number change stood at 42.4%. The AC50 under setting [1] is 0.651 µM [rising, partial curve]. Besides, the AC50 under setting [2] is 4.11 µM [rising, partial curve].

In the case of `c1ccc(-c2ccc(-c3n(-c4ccccn4)c4ccccc4[n+]3-c3ccccn3)cc2)cc1`, the cell number change was -62.3%. The concentration at half-maximal activity (AC50) under setting [1] is 29.1 µM [falling, single point]. The AC50 under setting [2] is 29.1 µM [falling, single point].

For `CCC(=O)c1cn(Cc2ccc(C#N)cc2)c2ccccc12`, the cell number change came to 14.9%. For the same molecule, the AC50 under setting [2] was 6.51 µM [rising, single point].

On to `CNCC(O)c1cccc(OC(=O)c2ccccc2C)c1` (stereo not drawn), for which the cell number change was 13.1%. Moreover, the AC50 under setting [2] is 5.17 µM [falling, single point].

For the molecule `COC(=O)C1=C(c2ccc(F)cc2OCc2ccccc2)C[C@@H]2CC[C@H]1N2C(=O)NCc1cccc(C(F)(F)F)c1`, the cell number change is -20.9%.

As to `Cc1nn(Cc2ccccc2Cl)c(Cl)c1C(=O)OCC(=O)NC(=O)NC1CCCCC1`, the cell number change stood at 30.6%. In addition, the AC50 under setting [1] was 9.2 µM [rising, partial curve]. Further, the AC50 under setting [2] was 14.6 µM [rising, partial curve, poor fit].

For `C=CCn1c(O)c(C(CC)=Nc2cc(OC)ccc2OC)c(=O)[nH]c1=O`, the cell number change is -6%. Also, under setting [2], the AC50 is 0.116 µM [rising, full curve, poor fit].

On to `O=C(CN1CCCC1=O)Nc1ccccc1`, for which the cell number change is -8.06%. In addition, under setting [1], the AC50 was 0.731 µM [falling, single point]. Further, under setting [2], the AC50 is 10.3 µM [falling, partial curve].

For the molecule `C/C(=N/OC(=O)N(C)C)c1ncc(C(F)(F)F)cc1N1CCOCC1`, the cell number change came to 71.1%. The AC50 under setting [1] was 32.6 µM [rising, partial curve, poor fit]. Further, the AC50 under setting [2] is 25.9 µM [rising, partial curve].

Take `Fc1ccc2c(c1)nnn2C1CCN(Cc2nnnn2CCc2ccccc2)CC1`: the cell number change is -15.6%. Besides, under setting [2], the AC50 is 1.3 µM [rising, partial curve].

As to `CC(C)c1ccc(-n2c(O)c(/C=N/NC(=O)c3ccncc3)c(=O)[nH]c2=O)cc1`, the cell number change is -31%. For the same molecule, under setting [1], the AC50 is 16.4 µM [falling, single point].

`Cc1ccc(-c2cc(-c3ccccc3)cc(-c3ccccc3)[n+]2-c2ccc(C(=O)O)cc2)cc1`: the cell number change is -16.4%. For the same molecule, the AC50 under setting [2] is 5.17 µM [rising, partial curve].

For `CSCCC(N=Cc1c(O)n(-c2ccc(F)cc2)c(=O)[nH]c1=O)C(=O)OC(C)(C)C` (stereo not drawn), the cell number change was -55.1%. In addition, the concentration at half-maximal activity (AC50) under setting [1] is 29.1 µM [falling, single point].

For `COc1cc(OC)c(OC)cc1CN1CCN(C(=O)COc2ccc3ccccc3c2)CC1`, the cell number change is -1.59%. Moreover, the AC50 under setting [2] is 29.1 µM [rising, single point].

Take `O=[N+]([O-])c1cc(S(=O)(=O)c2ccc(O)c([N+](=O)[O-])c2)ccc1O`: the cell number change was -0.784%. In addition, the AC50 under setting [2] was 1.64 µM [falling, partial curve].

With `N/C(=N/[N+](=O)[O-])N1CCN(C(=O)c2ccc(Cl)cc2)CC1`, the cell number change was -7.06%. The AC50 under setting [1] is 0.731 µM [rising, partial curve, poor fit]. In addition, the AC50 under setting [2] was 0.651 µM [rising, partial curve, poor fit].

Turning to `O=C(O)CC1OCC=C2CN3CCC45c6ccccc6NC4C1C2CC35` (stereo not drawn), the cell number change is 19.9%. For the same molecule, the AC50 under setting [2] is 2.31 µM [rising, full curve].

Consider `CC#CP(=O)(OC)C(O)(CF)c1ccccc1` (stereo not drawn), for which the cell number change was -7%. The AC50 under setting [2] is 0.0058 µM [falling, full curve, poor fit].

On to `CCCCCCNc1nc(OC)nc(N2CC3CC(C2)c2cccc(=O)n2C3)n1` (stereo not drawn), for which the cell number change was -9.23%. Moreover, the AC50 under setting [2] is 18.4 µM [rising, single point].

With `COC(=O)Cn1cc(C=C2C(=O)N(C)C(=O)N(C)C2=O)c2ccccc21`, the cell number change is 19.2%. Moreover, under setting [2], the AC50 was 1.03 µM [rising, full curve, poor fit].

With `COc1cccc(NC(=O)[C@@H](NC(=O)N2C[C@H]3C[C@@H](C2)c2cccc(=O)n2C3)C(C)C)c1`, the cell number change was -15.6%. Besides, under setting [2], the AC50 was 2.59 µM [falling, full curve, poor fit].

Take `CC/C=C/CC(=O)N[C@@H](c1ccccc1)[C@@H](O)C(=O)O[C@H]1C[C@@]2(O)[C@@H](OC(=O)c3ccccc3)C3[C@](C)(C(=O)[C@H](OC(C)=O)C(=C1C)C2(C)C)[C@@H](O)C[C@H]1OC[C@@]31OC(C)=O` (stereo partly drawn): the cell number change was -0.0872%. In addition, the AC50 under setting [2] is 3.26 µM [falling, single point].

For `O=C1NC(=O)N(Cc2ccco2)C(=O)/C1=C/C=C/c1ccco1`, the cell number change is -36%. Besides, the AC50 under setting [1] is 20.6 µM [falling, single point].

Regarding `CCC(=NCCCN(CC)CC)c1c(O)n(C2CCCCC2)c(=O)[nH]c1=O`, the cell number change was -0.0458%. The AC50 under setting [2] is 29.1 µM [falling, single point].
